From the supplement of paper PMC12009310
Counter-ions that a name gives are not always drawn. ± gives the standard deviation of the averaged measurements. The list shows a part of the results. Plates or batches differ in their baseline, so values are only roughly comparable.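 The cells are a mouse kidney inner medullary collecting duct line, silenced either for the ciliary gene Rpgrip1l or with a non-targeting control siRNA.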

What was measured:
mIMCD3 [1] = test: robust z score of cell number vs plate controls; higher = more cells (less cytotoxic); conditions: 10 µM, 48 h
mIMCD3 [2] = test: robust z score of cilia incidence (% cells with single cilium) vs plate controls; higher = more ciliated cells; conditions: 10 µM; 48 h; siRNA: siScr
mIMCD3 [3] = test: robust z score of cilia incidence (% cells with single cilium) vs plate controls; higher = more ciliated cells (rescue of cilia loss); conditions: 10 µM; 48 h; siRNA: siRpgrip1l

NC(=O)CNCCC(c1ccccc1)c1ccccc1 [N20C hydrochloride]
robust z score of cell number (mIMCD3 [1]; siRNA: siRpgrip1l): 1.21 ± 1.6
robust z score of cell number (mIMCD3 [1]; siRNA: siScr): -5.71 ± 6.5
robust z score of cilia incidence (mIMCD3 [2]): -0.541 ± 1.1
robust z score of cilia incidence (mIMCD3 [3]): -7.31 ± 2.9

CCc1cc(C(C)=O)c(O)cc1OCCCCCC(C)(C)c1nn[nH]n1
robust z score of cell number (mIMCD3 [1]; siRNA: siRpgrip1l): -24.9 ± 16
robust z score of cell number (mIMCD3 [1]; siRNA: siScr): -34.8 ± 18
robust z score of cilia incidence (mIMCD3 [2]): -1.61 ± 4.1
robust z score of cilia incidence (mIMCD3 [3]): -18.3 ± 22

Cc1c[nH]c(=O)n(CCCN2CCN(c3ccccc3OCC(F)(F)F)CC2)c1=O
robust z score of cell number (mIMCD3 [1]; siRNA: siRpgrip1l): -23.9 ± 17
robust z score of cell number (mIMCD3 [1]; siRNA: siScr): -2.94 ± 2
robust z score of cilia incidence (mIMCD3 [2]): 1.58 ± 5.5
robust z score of cilia incidence (mIMCD3 [3]): -9.5 ± 1.2

N[C@@H](CS(=O)O)C(=O)O [L-Cysteine sulfinic acid]
robust z score of cell number (mIMCD3 [1]; siRNA: siRpgrip1l): 8.15 ± 10
robust z score of cell number (mIMCD3 [1]; siRNA: siScr): -2.48 ± 2.8
robust z score of cilia incidence (mIMCD3 [2]): 0.753 ± 1.8
robust z score of cilia incidence (mIMCD3 [3]): -8.38 ± 8

COc1cc(N)c(Cl)cc1C(=O)CCC1CCN(CCNS(C)(=O)=O)CC1
robust z score of cell number (mIMCD3 [1]; siRNA: siRpgrip1l): -12.3 ± 0.8
robust z score of cell number (mIMCD3 [1]; siRNA: siScr): -12.6 ± 10
robust z score of cilia incidence (mIMCD3 [2]): -26.4 ± 11
robust z score of cilia incidence (mIMCD3 [3]): -21 ± 1.8

COc1nccc(-c2c(-c3ccc(F)cc3)ncn2C2CCC(O)CC2)n1 (stereo not given)
robust z score of cell number (mIMCD3 [1]; siRNA: siRpgrip1l): -6.52 ± 4.4
robust z score of cell number (mIMCD3 [1]; siRNA: siScr): -2.82 ± 4.4
robust z score of cilia incidence (mIMCD3 [2]): -16.5 ± 9.3
robust z score of cilia incidence (mIMCD3 [3]): -46.8 ± 27

C[C@H]1O[C@H](O[C@H]2[C@H](O)[C@@H](O)[C@@H](O[C@H]3[C@H](O)[C@@H](O)C(O)O[C@@H]3CO)O[C@@H]2CO)[C@H](O)[C@@H](O)[C@@H]1N[C@H]1C=C(CO)[C@@H](O)[C@H](O)[C@H]1O (stereo not given in full) [Acarbose]
robust z score of cell number (mIMCD3 [1]; siRNA: siRpgrip1l): -9.2 ± 4.3
robust z score of cell number (mIMCD3 [1]; siRNA: siScr): -60.2 ± 65
robust z score of cilia incidence (mIMCD3 [2]): -11.7 ± 12
robust z score of cilia incidence (mIMCD3 [3]): -12.4 ± 3

O=S(=O)(NCCNC/C=C/c1ccc(Br)cc1)c1cccc2cnccc12 [H 89 dihydrochloride]
robust z score of cell number (mIMCD3 [1]; siRNA: siRpgrip1l): -23.6 ± 22
robust z score of cell number (mIMCD3 [1]; siRNA: siScr): -10.8 ± 7.6
robust z score of cilia incidence (mIMCD3 [2]): -8.91 ± 5.8
robust z score of cilia incidence (mIMCD3 [3]): -13.6 ± 5.8

COc1cc(C(=O)OCCCN2CCCN(CCCOC(=O)c3cc(OC)c(OC)c(OC)c3)CC2)cc(OC)c1OC [Dilazep dihydrochloride]
robust z score of cell number (mIMCD3 [1]; siRNA: siRpgrip1l): -79 ± 70
robust z score of cell number (mIMCD3 [1]; siRNA: siScr): -48.7 ± 34
robust z score of cilia incidence (mIMCD3 [2]): -24.2 ± 6.1
robust z score of cilia incidence (mIMCD3 [3]): -32.3 ± 18

Cc1ccc(OCC(O)C(C)NC(C)C)c2c1CCC2 (stereo not given) [ICI-118,551 hydrochloride]
robust z score of cell number (mIMCD3 [1]; siRNA: siRpgrip1l): -3.97 ± 4.4
robust z score of cell number (mIMCD3 [1]; siRNA: siScr): -1.81 ± 1.1
robust z score of cilia incidence (mIMCD3 [2]): -5.73 ± 0.34
robust z score of cilia incidence (mIMCD3 [3]): -11.3 ± 1.5

CN(CCc1ccc(Cl)c(Cl)c1)CC(O)COc1ccc(NS(C)(=O)=O)cc1 (stereo not given)
robust z score of cell number (mIMCD3 [1]; siRNA: siRpgrip1l): -24.6 ± 2
robust z score of cell number (mIMCD3 [1]; siRNA: siScr): -21.8 ± 11
robust z score of cilia incidence (mIMCD3 [2]): -26.8 ± 7.7
robust z score of cilia incidence (mIMCD3 [3]): -24.5 ± 5

CCN1CCCC1CNC(=O)c1cc(S(=O)(=O)CC)c(N)cc1OC (stereo not given) [Amisulpride]
robust z score of cell number (mIMCD3 [1]; siRNA: siRpgrip1l): -0.312 ± 1.3
robust z score of cell number (mIMCD3 [1]; siRNA: siScr): -8.01 ± 12
robust z score of cilia incidence (mIMCD3 [2]): 0.384 ± 2.8
robust z score of cilia incidence (mIMCD3 [3]): -6.46 ± 3.5

COC(=O)C1=C(C)NC(C)=C(C(=O)OCCSc2ccccc2)C1C (stereo not given)
robust z score of cell number (mIMCD3 [1]; siRNA: siRpgrip1l): -98.8 ± 76
robust z score of cell number (mIMCD3 [1]; siRNA: siScr): -115 ± 99
robust z score of cilia incidence (mIMCD3 [2]): -5.11 ± 1.6
robust z score of cilia incidence (mIMCD3 [3]): -19.3 ± 1.5

CC(C1=C(CCN(C)C)Cc2ccccc21)c1ccccn1 (stereo in doubt) [(S)-(+)-Dimethindene maleate]
robust z score of cell number (mIMCD3 [1]; siRNA: siRpgrip1l): -17.7 ± 18
robust z score of cell number (mIMCD3 [1]; siRNA: siScr): -1.6 ± 2.5
robust z score of cilia incidence (mIMCD3 [2]): -1.4 ± 5.5
robust z score of cilia incidence (mIMCD3 [3]): -8.11 ± 1.9

O=c1cc(-c2ccc(O)cc2)oc2cc(O)cc(O)c12 [Apigenin]
robust z score of cell number (mIMCD3 [1]; siRNA: siRpgrip1l): -217 ± 170
robust z score of cell number (mIMCD3 [1]; siRNA: siScr): -29.3 ± 7.3
robust z score of cilia incidence (mIMCD3 [2]): -7.64 ± 13
robust z score of cilia incidence (mIMCD3 [3]): -15.5 ± 4.6
